Measurements taken from the M2OR odorant receptor database.
Where a chain is given by its changes, count along the chain named. The entries are a selection whose mix differs from that of the whole data set. The calls were merged from several studies; some rest on single wells. The list shows a part of the results.

Chains of the proteins cited; added tags and fusions are not shown. A line that says so, or that is headed by a name, gives the form on record, which may keep a tag or linker.
OR2C1, as listed by the source: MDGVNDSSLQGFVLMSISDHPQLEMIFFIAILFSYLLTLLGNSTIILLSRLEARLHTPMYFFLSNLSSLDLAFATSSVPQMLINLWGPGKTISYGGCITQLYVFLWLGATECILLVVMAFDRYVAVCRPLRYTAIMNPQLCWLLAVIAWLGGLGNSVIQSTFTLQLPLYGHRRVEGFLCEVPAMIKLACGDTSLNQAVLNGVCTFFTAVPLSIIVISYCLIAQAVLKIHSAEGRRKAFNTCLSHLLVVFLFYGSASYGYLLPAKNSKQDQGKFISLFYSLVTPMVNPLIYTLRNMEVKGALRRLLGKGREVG

Assays:
Details in all cases: stereoisomer not certain
OR2B6 (Homo sapiens) = target: T1, OR2B6 (Homo sapiens) (UniProt P58173)
T1 sequence (whole entry): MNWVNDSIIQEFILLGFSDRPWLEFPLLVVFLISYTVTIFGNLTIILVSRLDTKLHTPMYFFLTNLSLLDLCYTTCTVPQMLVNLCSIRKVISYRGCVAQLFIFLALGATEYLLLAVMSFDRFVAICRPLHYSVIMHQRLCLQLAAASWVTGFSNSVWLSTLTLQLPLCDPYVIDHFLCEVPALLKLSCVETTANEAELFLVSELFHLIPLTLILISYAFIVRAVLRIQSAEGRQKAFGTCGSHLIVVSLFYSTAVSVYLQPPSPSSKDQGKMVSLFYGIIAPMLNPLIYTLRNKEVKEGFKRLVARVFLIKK
Summary of the method: (§1)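 Each entry records the cell line, G-protein, co-transfected protein and tags used. Methods varied with the source, often transient luciferase assays in mammalian cell lines. A receptor–molecule pair is called responsive (active) if the original authors judged its signal statistically different from baseline and non-responsive (inactive) otherwise.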

OR2B8 = system: T2, OR2B8
T2 sequence (whole entry): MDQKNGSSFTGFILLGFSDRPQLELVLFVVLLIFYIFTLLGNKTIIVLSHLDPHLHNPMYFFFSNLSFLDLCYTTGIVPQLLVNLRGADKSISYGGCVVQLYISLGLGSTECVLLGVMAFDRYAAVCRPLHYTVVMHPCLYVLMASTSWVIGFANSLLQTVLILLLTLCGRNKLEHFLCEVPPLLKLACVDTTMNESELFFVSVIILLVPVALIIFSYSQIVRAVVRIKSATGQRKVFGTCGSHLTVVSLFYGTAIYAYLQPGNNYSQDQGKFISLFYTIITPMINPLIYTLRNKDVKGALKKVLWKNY
Summary of the method: as §1

OR2C1 [1] = system: T3, OR2C1
T3 sequence (whole entry): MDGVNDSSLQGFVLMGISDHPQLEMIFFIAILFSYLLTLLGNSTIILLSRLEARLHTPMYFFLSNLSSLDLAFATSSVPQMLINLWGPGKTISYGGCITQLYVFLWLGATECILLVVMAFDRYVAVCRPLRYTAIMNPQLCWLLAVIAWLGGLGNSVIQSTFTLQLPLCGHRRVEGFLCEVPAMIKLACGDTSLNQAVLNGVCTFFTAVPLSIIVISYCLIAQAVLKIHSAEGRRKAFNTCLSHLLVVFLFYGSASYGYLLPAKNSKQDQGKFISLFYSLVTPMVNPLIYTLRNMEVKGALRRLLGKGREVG
Summary of the method: as §1

OR2C1 [2] = system: T4, OR2C1; remark: listed apart in the source
T4 sequence (whole entry): T3 sequence (whole entry) with H229R
Summary of the method: as §1

OR2C1 [3] = system: T5, OR2C1; remark: listed apart in the source
T5 sequence (whole entry): T3 sequence (whole entry) with P58S, H229R
Summary of the method: as §1

OR2C1 [4] = system: T6, OR2C1; remark: listed apart in the source
T6 sequence (whole entry): T3 sequence (whole entry) with G16S
Summary of the method: as §1

OR2C1 [5] = system: T7, OR2C1; remark: listed apart in the source
T7 sequence (whole entry): T3 sequence (whole entry) with G16S, H229R
Summary of the method: as §1

OR2C3 = system: T8, OR2C3
T8 sequence (whole entry): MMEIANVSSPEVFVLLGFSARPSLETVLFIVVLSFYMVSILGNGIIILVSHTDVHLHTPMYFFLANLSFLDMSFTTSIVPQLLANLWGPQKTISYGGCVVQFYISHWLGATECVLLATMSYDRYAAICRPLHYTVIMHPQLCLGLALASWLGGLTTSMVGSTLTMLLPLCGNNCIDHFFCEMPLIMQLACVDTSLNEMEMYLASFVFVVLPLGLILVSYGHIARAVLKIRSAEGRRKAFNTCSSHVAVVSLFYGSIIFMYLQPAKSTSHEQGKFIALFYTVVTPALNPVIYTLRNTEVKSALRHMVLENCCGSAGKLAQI
Summary of the method: as §1

OR2D2 (Homo sapiens) = target: T9, OR2D2 (Homo sapiens) (UniProt Q9H210)
T9 sequence (whole entry): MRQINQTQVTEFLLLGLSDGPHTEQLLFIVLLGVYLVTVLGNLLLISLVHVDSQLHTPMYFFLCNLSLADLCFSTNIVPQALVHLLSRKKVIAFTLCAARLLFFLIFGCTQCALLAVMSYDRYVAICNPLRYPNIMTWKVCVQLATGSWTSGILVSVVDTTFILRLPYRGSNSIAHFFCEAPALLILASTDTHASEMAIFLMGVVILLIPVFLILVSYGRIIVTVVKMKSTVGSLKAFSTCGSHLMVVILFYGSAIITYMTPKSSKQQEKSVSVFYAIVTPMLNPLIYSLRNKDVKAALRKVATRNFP
Summary of the method: as §1

OR2D3 = system: T10, OR2D3
T10 sequence (whole entry): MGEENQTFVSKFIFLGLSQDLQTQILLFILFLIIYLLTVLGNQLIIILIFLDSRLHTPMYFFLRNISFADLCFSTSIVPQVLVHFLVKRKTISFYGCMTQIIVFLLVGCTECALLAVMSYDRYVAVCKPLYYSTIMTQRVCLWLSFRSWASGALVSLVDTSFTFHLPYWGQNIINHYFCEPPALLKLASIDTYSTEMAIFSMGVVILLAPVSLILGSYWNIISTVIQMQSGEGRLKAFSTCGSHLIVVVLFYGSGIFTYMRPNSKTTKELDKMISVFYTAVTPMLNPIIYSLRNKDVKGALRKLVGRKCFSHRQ
Summary of the method: as §1

OR2F1 (Homo sapiens) = target: T11, OR2F1 (Homo sapiens) (UniProt Q13607)
T11 sequence (whole entry): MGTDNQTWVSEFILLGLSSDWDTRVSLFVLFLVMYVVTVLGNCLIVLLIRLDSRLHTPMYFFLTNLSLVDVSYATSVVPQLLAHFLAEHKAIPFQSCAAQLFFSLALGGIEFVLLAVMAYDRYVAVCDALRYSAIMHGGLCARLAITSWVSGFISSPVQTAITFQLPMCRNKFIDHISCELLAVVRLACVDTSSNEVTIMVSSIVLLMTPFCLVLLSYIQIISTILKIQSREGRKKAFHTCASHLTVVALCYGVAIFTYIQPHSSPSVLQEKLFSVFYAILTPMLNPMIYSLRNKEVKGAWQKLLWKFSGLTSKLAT
Summary of the method: as §1

OR2C1 (Homo sapiens) = target: T12, OR2C1 (Homo sapiens) (UniProt O95371)
T12 sequence (whole entry): T3 sequence (whole entry) with W149C, H229R
Summary of the method: as §1

OR2C1 [6] = system: OR2C1; remark: listed apart in the source
Summary of the method: as §1

| SMILES | odorant receptor agonist call (OR2B6 (Homo sapiens)) | odorant receptor agonist call (OR2B8) | odorant receptor agonist call (OR2C1 [1]) | odorant receptor agonist call (OR2C1 [2]) | odorant receptor agonist call (OR2C1 [3]) | odorant receptor agonist call (OR2C1 [4]) | odorant receptor agonist call (OR2C1 [5]) | odorant receptor agonist call (OR2C3) | odorant receptor agonist call (OR2D2 (Homo sapiens)) | odorant receptor agonist call (OR2D3) | odorant receptor agonist call (OR2F1 (Homo sapiens)) | odorant receptor agonist call (OR2C1 (Homo sapiens)) | odorant receptor agonist call (OR2C1 [6]) |
| --- | --- | --- | --- | --- | --- | --- | --- | --- | --- | --- | --- | --- | --- |
| CC1COCc2cc3c(cc21)C(C)(C)C(C)C3(C)C (centres undefined) | active | inactive | active | inactive | active | active | active | active | inactive | active | inactive | – | – |
| CC12CCC(C1)C(C)(C)C2=O (centres undefined) | inactive | inactive | inactive | inactive | inactive | inactive | inactive | inactive | inactive | inactive | inactive | inactive | – |
| COC(=O)c1ccccc1O | inactive | inactive | inactive | inactive | inactive | inactive | inactive | inactive | inactive | inactive | inactive | – | – |
| CCCCO | inactive | inactive | inactive | inactive | inactive | inactive | inactive | inactive | inactive | inactive | inactive | – | – |
| CC12C=CCC1C1CCC3=CC(=O)CCC3(C)C1CC2 (centres undefined) | inactive | inactive | inactive | inactive | inactive | inactive | inactive | inactive | inactive | inactive | active | – | – |
| O=CCc1ccccc1 | inactive | inactive | inactive | active | inactive | inactive | inactive | inactive | active | inactive | inactive | – | active |
| CC1CCC(C(C)C)C(O)C1 (centres undefined) | inactive | inactive | inactive | active | active | inactive | inactive | active | inactive | inactive | inactive | – | – |
| CC(C)=CCCC(C)=CC=O | inactive | inactive | inactive | inactive | inactive | inactive | inactive | inactive | active | inactive | inactive | – | – |
| c1ccc(Oc2ccccc2)cc1 | inactive | inactive | inactive | inactive | inactive | inactive | inactive | inactive | inactive | inactive | inactive | – | – |
| CCCCCCCC=CC=O | inactive | inactive | inactive | inactive | inactive | inactive | active | active | inactive | inactive | inactive | – | – |
| O=C1CCCCCCCCCCCC(=O)OCCO1 | inactive | inactive | inactive | inactive | inactive | inactive | inactive | inactive | active | inactive | inactive | – | – |
| C=CCc1ccc(OC)c(OC)c1 | inactive | inactive | inactive | active | inactive | inactive | inactive | inactive | inactive | inactive | inactive | – | – |

Individual results from the list.
Entry of `CC12C=CCC1C1CCC3=CC(=O)CCC3(C)C1CC2` (centres undefined) under odorant receptor agonist call (OR2C1 [2]): inactive
Entry of `CC(C)=CCCC(C)=CC=O` under odorant receptor agonist call (OR2C1 [4]): inactive
